Assay results published in patent US20220047631A1 (UNIVERSITY OF CHICAGO, published 2022).
Where no end group is shown, it is not given here. The star is where a group is joined. GalNAc = N-acetyl galactosamine (O-linked to Thr, Tn antigen); Biotin = O=C1N[C@H]2[C@H](CS[C@H]2CCCCC(=O)*)N1

Target: T1, Tn-OTS8 peptide ERGT(GalNAc)KPPLEELSGK-biotin, monomer (murine)
T1 construct: also called glycosylated OTS-8 peptide (biotinylated)
T1 peptide: ERGT(GalNAc)KPPLEELSGK(Biotin)
Experiment: flow cytometry of yeast-displayed clone with 1 or 10 nM Tn-OTS8 peptide
Procedure: FIG. 20. […] 10 clones were isolated from Tn-OTS8 peptide-sorted post-sort-4 and post-sort-5 populations. Each clone was stained with 1 or 10 nM Tn-OTS8 peptide and analyzed by flow cytometry. The mean fluorescence units (MFUs) of each clone is plotted on Y-axis. […] In addition, plasmid DNA was isolated from each clone to determine the kind of mutation(s), and frequency of mutation(s) (n). The sequence of wild-type (wt) and mutated residues is shown in black and maroon, respectively.

binding result: binds
B1: --WS (wt: STHV) (scFv)
scFv (VL-linker-VH): DIQLTQSPLSLPVSLGDQASISCRSSQSLVHSNGNTYLHWYLQKPGQSPKLLIYKVSNRFSGVPDRFSGSGSGTDFTLKISSVEAEDLGVYFCSQSTWSPTFGGGTKLEIKGGGGSGGGGSGGGGSQVQLQQSGGGLVQPGGSMKIFCAASGFTFSDAWMDWVRQSPEKGLEWVAEIRNKANNHETYYAESVKGRFTITRDDSKSRMSLQMNSLRAEDTGIYYCSGGKVRNAYWGQGTTVTVSS
notes: isolated after sort 4 with Tn-OTS8p; also called clones O4-5, O4-8
